Measurements reported in PubChem BioAssay AID1259425 (University of Nebraska Medical Center, 2018).

Purpose: 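Seek colon cancer weak points whose silencing resembles KSR1 loss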 (primary screen)
System: HCT116 human colon cancer cells
Reagent: siRNA pool against human genes, 50 nM siRNA
Read-out: 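mRNA of six signature genes measured together by branched-DNA assay after 50 nM siRNA pool, blank removed, divided by geometric mean of two housekeeping genes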
Direction: BNIP3L mRNA: higher = more BNIP3L transcript after knockdown; NDRG1 mRNA: higher = more NDRG1 transcript after knockdown; BNIP3 mRNA: higher = more BNIP3 transcript after knockdown; ALDOC mRNA: higher = more ALDOC transcript after knockdown; ACSL5 mRNA: higher = more ACSL5 transcript after knockdown
The whole screen tested about 14,000 reagents; shown is a random part of them. Not given: the time to read-out.

| gene | BNIP3L mRNA, set 1 | NDRG1 mRNA, set 1 | BNIP3 mRNA, set 1 | ALDOC mRNA, set 1 | ACSL5 mRNA, set 1 |
| --- | --- | --- | --- | --- | --- |
| NDUFV3 (NADH:ubiquinone oxidoreductase subunit V3) | 0.146 | 0.389 | 0.566 | 0.0417 | 0.26 |
| GIN1 (gypsy retrotransposon integrase 1) | 0.879 | 3.01 | 2.45 | 0.321 | 0.265 |
| TXNIP (thioredoxin interacting protein) | 0.128 | 0.186 | 0.233 | 0.0428 | 0.19 |
| SCG3 (secretogranin III) | 0.0729 | 0.195 | 0.222 | 0.0241 | 0.232 |
| TCAP (titin-cap) | 0.18 | 1.21 | 0.422 | 0.016 | 0.17 |
| ECHDC3 (enoyl-CoA hydratase domain containing 3) | 0.143 | 0.0892 | 0.385 | 0.0308 | 0.289 |
| PKNOX1 (PBX/knotted 1 homeobox 1) | 0.042 | 0.0465 | 0.227 | 0.00376 | 0.228 |
| PCDHB16 (protocadherin beta 16) | 1.43 | 1.83 | 5.37 | 0.509 | 0.107 |
| PLEKHB1 (pleckstrin homology domain containing B1) | 0.637 | 1.88 | 0.955 | 0.0443 | 0.281 |
| TLL2 (tolloid like 2) | 0.0677 | 0.0923 | 0.475 | 0.0281 | 0.184 |
| LCE3D (late cornified envelope 3D) | 0.16 | 0.855 | 0.257 | 0.053 | 0.179 |
| PUM2 (pumilio RNA binding family member 2) | 0.0983 | 0.202 | 0.32 | 0.017 | 0.232 |
| CENPT (centromere protein T) | 0.0797 | 0.17 | 0.301 | 0.0168 | 0.221 |
| ZP2 (zona pellucida glycoprotein 2) | 0.0539 | 0.132 | 0.318 | 0.0189 | 0.226 |
| DYNLRB2 (dynein light chain roadblock-type 2) | 0.0741 | 0.11 | 0.243 | 0.0183 | 0.267 |
| CPXCR1 (CPX chromosome region candidate 1) | 0.185 | 0.18 | 0.231 | 0.0497 | 0.401 |
| LINC00158 (long independently transcribed non-coding RNA 158) | 0.1 | 0.22 | 0.335 | 0.0189 | 0.088 |
| DCAF8 (DDB1 and CUL4 associated factor 8) | 0.141 | 0.532 | 0.244 | 0.0129 | 0.265 |
| CDK17 (cyclin dependent kinase 17) | 0.116 | 0.124 | 0.34 | 0.0133 | 0.219 |
| CTSA (cathepsin A) | 0.109 | 0.17 | 0.314 | 0.0361 | 0.0941 |
| NPL (N-acetylneuraminate pyruvate lyase) | 0.158 | 0.213 | 0.241 | 0.0473 | 0.388 |
| SERPINB10 (serpin family B member 10) | 0.12 | 0.289 | 0.226 | 0.02 | 0.189 |
| GUCY1B1 (guanylate cyclase 1 soluble subunit beta 1) | 0.0653 | 0.117 | 0.174 | 0.0298 | 0.117 |
| LGALS8 (galectin 8) | 0.0743 | 0.129 | 0.313 | 0.00769 | 0.273 |
| FOXP3 (forkhead box P3) | 0.128 | 0.102 | 0.17 | 0.0113 | 0.157 |
| PPP4R2 (protein phosphatase 4 regulatory subunit 2) | 0.106 | 0.105 | 0.207 | 0.0259 | 0.118 |
| IFNA14 (interferon alpha 14) | 0.106 | 0.118 | 0.251 | 0.0224 | 0.0932 |
| CRHR2 (corticotropin releasing hormone receptor 2) | 0.22 | 1.36 | 0.278 | 0.0531 | 0.214 |
| PEA15 (proliferation and apoptosis adaptor protein 15) | 0.0514 | 0.215 | 0.236 | 0.0355 | 0.0851 |
| PAK2 (p21 (RAC1) activated kinase 2) | 0.0859 | 0.0456 | 0.208 | 0.00186 | 0.0323 |
| SH3GL2 (SH3 domain containing GRB2 like 2, endophilin A1) | 0.0904 | 0.115 | 0.221 | 0.0132 | 0.119 |
| UGT2B10 (UDP glucuronosyltransferase family 2 member B10) | 0.133 | 0.2 | 0.178 | 0.0277 | 0.129 |
| NEU3 (neuraminidase 3) | 0.0675 | 0.0659 | 0.237 | 0.0333 | 0.161 |
| SORT1 (sortilin 1) | 0.132 | 0.128 | 0.464 | 0.0341 | 0.242 |
| PDZK1 (PDZ domain containing 1) | 0.0843 | 0.463 | 0.194 | 0.0286 | 0.178 |
| SLC25A31 | 0.269 | 0.286 | 0.325 | 0.157 | 0.415 |
| ITGAV (integrin subunit alpha V) | 0.133 | 0.256 | 0.249 | 0.02 | 0.392 |
| WDR12 (WD repeat domain 12) | 0.0551 | 0.0807 | 0.294 | 0.00981 | 0.153 |
| CYP2W1 (cytochrome P450 family 2 subfamily W member 1) | 0.0696 | 0.215 | 0.205 | 0.0169 | 0.234 |
| CA8 (carbonic anhydrase 8 (inactive)) | 0.102 | 0.346 | 0.397 | 0.0454 | 0.308 |
| FKBP2 (FKBP prolyl isomerase 2) | 0.0978 | 0.185 | 0.293 | 0.0244 | 0.168 |
| DOHH (deoxyhypusine hydroxylase) | 0.255 | 0.508 | 0.317 | 0.0752 | 0.469 |
| RAB9B (RAB9B, member RAS oncogene family) | 0.161 | 0.18 | 0.267 | 0.0383 | 0.0823 |
| PDE6C (phosphodiesterase 6C) | 0.126 | 0.649 | 0.318 | 0.0232 | 0.112 |
| MRPL1 (mitochondrial ribosomal protein L1) | 0.127 | 0.155 | 0.4 | 0.0424 | 0.121 |
| MRPL3 (mitochondrial ribosomal protein L3) | 0.0804 | 0.0812 | 0.267 | 0.0179 | 0.17 |
| COQ7 (coenzyme Q7, hydroxylase) | 0.0987 | 0.151 | 0.43 | 0.0483 | 0.146 |
| UFM1 (ubiquitin fold modifier 1) | 0.135 | 0.148 | 0.335 | 0.0433 | 0.167 |
| MCAT | 0.244 | 0.408 | 0.379 | 0.0309 | 0.156 |
| TRPC6 | 0.132 | 0.293 | 0.38 | 0.0104 | 0.194 |

5 successive reagents from above, for reference:
| gene | BNIP3L mRNA, set 1 | NDRG1 mRNA, set 1 | BNIP3 mRNA, set 1 | ALDOC mRNA, set 1 | ACSL5 mRNA, set 1 |
| --- | --- | --- | --- | --- | --- |
| FKBP2 (FKBP prolyl isomerase 2) | 0.0978 | 0.185 | 0.293 | 0.0244 | 0.168 |
| DOHH (deoxyhypusine hydroxylase) | 0.255 | 0.508 | 0.317 | 0.0752 | 0.469 |
| RAB9B (RAB9B, member RAS oncogene family) | 0.161 | 0.18 | 0.267 | 0.0383 | 0.0823 |
| PDE6C (phosphodiesterase 6C) | 0.126 | 0.649 | 0.318 | 0.0232 | 0.112 |
| MRPL1 (mitochondrial ribosomal protein L1) | 0.127 | 0.155 | 0.4 | 0.0424 | 0.121 |
